Measurements from PMC3519677.
Results are given in words; binding and its absence hold for the method and conditions named. Binding seen in cells or lysates may run through a third protein. Some binding calls cover weakened binding; strength is not graded here. For some assays here: Tags and fused reporters may be left off the sequences shown.

The chains behind the UniProt entries cited, without tags or fusion partners.
UniProt P80297: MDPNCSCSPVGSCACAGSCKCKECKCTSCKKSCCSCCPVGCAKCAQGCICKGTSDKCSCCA

Assays:
GST-tagged TCRP1 (human) = molecular target: T1, GST-tagged TCRP1 (human) (UniProt Q92567); assay: pull-down; ten micrograms of GST or GST-tagged TCRP1 incubated with Tca8113/PYM cell lysates for 4 h at 4°C; immunoblot with antibodies against GST, Akt or MT1X; only the target purified
T1 sequence: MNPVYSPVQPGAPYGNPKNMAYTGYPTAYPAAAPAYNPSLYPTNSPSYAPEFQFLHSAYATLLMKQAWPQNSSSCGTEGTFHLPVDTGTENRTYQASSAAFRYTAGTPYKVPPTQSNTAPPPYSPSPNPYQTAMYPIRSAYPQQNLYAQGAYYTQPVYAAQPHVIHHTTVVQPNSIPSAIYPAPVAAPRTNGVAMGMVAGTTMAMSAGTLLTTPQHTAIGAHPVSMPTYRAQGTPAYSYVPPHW

[1] = molecular target: T2, tongue cancer resistance-associated protein 1 (TCRP1), endogenous (human (endogenous in Tca8113/PYM)) (UniProt Q92567); assay: co-IP; Tca8113/PYM cell lysates (modified TNE buffer: 50 mM Tris pH 8.0, 150 mM NaCl, 1% Nonidet P-40) precipitated overnight at 4°C with anti-TCRP1 antibody or control IgG, protein G-agarose; immunoblot
T2 sequence: T1 sequence

- binding (GST-tagged TCRP1 (human)): binds
- binding [1]: binds
Substance: metallothionein1X (MT1X) (from UniProt P80297 1-61)
